Measurements as given in PubChem BioAssay AID1508600 (Functional Genomics Laboratory (NCATS/FGL), 2020).
Hit rate of the full screen: of about 53,000 sequences, about 3,700 (7%) were called active.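 The calls were made as follows: active = gene knockdowns whose robust z-score for IL-1 alpha signal is at least 2 or at most -2, so actives lie on both sides; inactive = the rest.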 This is one part of the list.

Test: Components of the Cytosolic LPS Sensing Pathway: Gene Identification via Genome-wide siRNA Screen;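 also: robust z of the log signal after scaling to non-targeting control siRNA wells of the plate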
Conditions: RAW264.7 macrophages, IL-1a HTRF, actives lie on both sides, screened at 100 nM (by protocol), cells primed 5 h with Pam3CSK4 first
In short: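 RAW264.7; siRNA 100 nM final, RNAiMAX, 48h 37 degrees C; Pam3CSK4 5 h; LipidA + TransIT-TKO 24 h; IL-1a HTRF; CellTiter-Glo viability; robust z vs negative-control median.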

| Sequence | z-score |
| --- | --- |
| CAAGAAGGUCAUGUUAUUGTT against Olfr106-ps | inactive: 0.495 |
| GGAGUUCAUUCUGGAUAUCTT against Matn2 | inactive: 1.24 |
| GGAGUAUAUCCAAAGAAUUTT against Hook2 | inactive: 0.111 |
| GUCCCAGUACUUCUUGUUUTT against Vmn1r27 | inactive: 0.675 |
| GGAGACCUUUGCUCAUCUCTT against Hbb-bh1 | inactive: -1.08 |
| GCUACGUUUUUUACCUCCATT against Bak1 | inactive: 0.0106 |
| GCAACCCUUUAAUGAAAAATT against Jazf1 | inactive: 0.379 |
| CCAGUACGAUUUCUCUCGATT against Camsap3 | inactive: -1.35 |
| GCAUCAGCUCACCUUUGUATT against Clec4a1 | inactive: 0.547 |
| GCACCCUUGAGAAAUCCAATT against Cfdp1 | inactive: -0.224 |
| GGAAGUUAGUUUCGUUUUATT against Rprd1b | active: 2.03 |
| GGUUCUGUGUAUGGAUUAUTT against Fzd5 | inactive: -0.208 |
| GCCUAUGUAAAUAGUGCUGTT against Mt3 | inactive: 0.549 |
| GUCAGUGGGCUUCUCAGAUTT against Pxmp2 | inactive: 0.494 |
| GGUUAACAUCACUCUGUCUTT against Ntng1 | inactive: -1.02 |
| GCGAGUGGACCUGUUUUACTT against Btc | inactive: 1.6 |
| GGCUGCUAACAAAGACAACTT against Ift172 | inactive: -0.0877 |
| GGCUAUCACACAGCAUAGATT against Rdh7 | inactive: 1.57 |
| GCCUUAGGUUGAUAGGAGGTT against Tas2r110 | inactive: -0.191 |
| GGCGAACGGUACUUAGACUTT against Etnppl | inactive: 0.648 |
| GGAGGAAUACGUAUACUUCTT against Dipk1c | active: 2.16 |
| GGAAAACUUAUACUCAGAATT against Vmn1r181 | inactive: -0.197 |

| Sequence | z-score |
| --- | --- |
| GGUACAACUUUGUGACUUATT against Ercc8 | inactive: 1.04 |
| CCACGGUCUCUUAUUUAUGTT against Pim3 | inactive: 0.535 |
| CCUACACAACCGUGUUCAATT against Gtf3a | inactive: -0.603 |
| GCUCGCCUGCAUUUCAUCATT against Pank4 | active: 3.3 |
| GGUUUAUUGACCAUCUAAUTT against Ttc4 | inactive: -0.0452 |
| CGUUUUUGUCUAGUUUGAATT against Macrod2 | inactive: -1.08 |
| GCAUGCGACUCUGUUCUCGTT against Gtf2a2 | inactive: -0.228 |
| GCCGCACAUGAACAGAACCTT against Phykpl | inactive: 0.297 |
| CCGCAAAGUGAGCAAGGUGTT against Id1 | inactive: -0.63 |
| GGGCAAAAUAUGAAAUACATT against Pate6 | active: 2.92 |
| GGUCACAAUGGUUUAAGGATT against Tacr1 | inactive: -0.943 |
| GGAGGCACACCUGAAACAUTT against Cacna2d3 | inactive: -1.19 |
| GGGUGUUUGGUUGUGAUCUTT against Arhgap33 | active: -2.07 |
| GGCUUUCAAGAGCAAUCCCTT against Man2b2 | active: -2.21 |
| GGACAAGGUAUUUUACGUCTT against Mars1 | inactive: -0.151 |
| GGAUUCAUGAUUAUCUUUCTT against Olfr790 | inactive: -0.138 |
| GGCUCGAGUUCAACCUAAUTT against Arih2 | inactive: 0.436 |
| CGGGAAUACGCUACGAACATT against Hoxa13 | inactive: 0.321 |
| GGCAGAAUCCAGCUCAGUUTT against Retreg2 | inactive: -0.0202 |
| GGCUUCUACUGAAGAAUCCTT against Gdf9 | inactive: -0.218 |
| GCUGCACGGAAACAUGUUUTT against Sirt6 | inactive: 1.03 |
| CCUCUUUUUCUCCUAUUUUTT against Olfr1165-ps | inactive: -0.941 |

Some of the entries above in another layout:
Sequence | z-score
CGGGAAUACGCUACGAACATT against Hoxa13 | inactive: 0.321
GGCAGAAUCCAGCUCAGUUTT against Retreg2 | inactive: -0.0202
GGCUUCUACUGAAGAAUCCTT against Gdf9 | inactive: -0.218
GCUGCACGGAAACAUGUUUTT against Sirt6 | inactive: 1.03
CCUCUUUUUCUCCUAUUUUTT against Olfr1165-ps | inactive: -0.941

Going on with the list:

| Sequence | z-score |
| --- | --- |
| GGAGUUCAAAGACCCUCUGTT against Tmem97 | inactive: -0.758 |
| GGUGCUGACUGAGAAGGAGTT against Fdps | inactive: -1.18 |
| CCGGCUAAUACUGUUGUGGTT against Snrnp40 | inactive: -1.99 |
| GGGCAAGAUGGUCAGUAGATT against Tpt1 | inactive: 0.627 |
| GGCCGUUCCAAAAGAGACATT against Slc22a20 | inactive: -1.03 |
| GGAAGAAGAGAAGUUACAGTT against Spata24 | inactive: -0.506 |
| GGUUACAUUGCUCUCGUGCTT against Vmn1r66 | inactive: -0.255 |
| GCCGUUUUAUGUGGCAGAATT against Slc35d3 | inactive: 0.141 |
| GGAUUUCUGUGGAGAUGGGTT against Cchcr1 | inactive: 0.444 |
| GGAAAGUGUGUUCAUUAGUTT against Pla2g2d | inactive: -0.268 |
| GGAGAGGUGUAAUGUAUUCTT against Gdpd4 | inactive: -1.89 |
| GGCCAUGGAAGCUGUUGCUTT against Pgam2 | inactive: -0.264 |
| CCACUGUCCCUAAGGUACUTT against Olfr161 | inactive: -0.292 |
| GGAAACAUGGCAUCAAGACTT against 1110059G10Rik | inactive: 0.0576 |
| GCCGCUUAGUUCUGUUUUATT against Clcn5 | inactive: 0.273 |
| GCAGAUGCAAUUAUUACCCTT against Kcnmb1 | inactive: -0.792 |
| GCUAUAGGCUUAAUGAAAATT against 4931406B18Rik | inactive: -0.325 |
| GGUUGGUCAGACAAGGAUCTT against Cd99l2 | inactive: -0.913 |
| GGGAGUUCUUGACCAAAUGTT against Katna1 | inactive: 1.82 |
| GGUUAAGACCUUAAACAGATT against Prl4a1 | inactive: 0.0572 |
| CCUCAGUUAUAGAUGAUCUTT against Rdh11 | inactive: 0.319 |
| GGAAAACCCUAGCACCAUGTT against A430093F15Rik | inactive: -0.414 |

| Sequence | z-score |
| --- | --- |
| GGGAAGAGUGGUGCAAUGATT against Olfr155 | inactive: 0.835 |
| GGCUUUGGUCAAGGAGAAGTT against Pias4 | inactive: -1.32 |
| GGGAAACACCUGGGUGCUUTT against Ctrl | inactive: -1.07 |
| GCGGAUCUCCCUAAGAAUUTT against Ctsz | inactive: 0.921 |
| GUAAAAGGAGAUGAAGACATT against Sly | inactive: -0.686 |
| CCAGGGUAUGUAAAUAUCUTT against Epha8 | inactive: -1.47 |
| GCACAAUUGGAAUUGUACATT against Ubqln2 | active: -2.18 |
| GGUCCACAAUGGCAUCAUATT against Elf4 | active: 2.13 |
| CCGAUCACUUUAUCUUCACTT against Lrrc42 | inactive: -0.0141 |
| GGCUCGGUAUCGUUUUUCATT against Arl3 | inactive: 0.841 |
| GCAUGACGGUGUUAACUACTT against Jam3 | inactive: 0.433 |
| GGAUGGUAGGAUGUAGAUCTT against Tafa1 | inactive: -0.819 |
| GGCACAGAGAACAAUACUUTT against Npy5r | inactive: -0.128 |
| GGAAUUUGCUGAAUUGCUCTT against Ophn1 | inactive: 1.34 |
| CCCUUUCAACCAUUAAGCUTT against Kcns2 | inactive: 0.243 |
| GGAAGAAGAUCAAGGAGAUTT against Myof | inactive: -0.654 |
| CCAUCAUAUCAGACCCUGGTT against Olfr733 | inactive: -0.222 |
| GGCCAUUUCUUUCAUAGAUTT against Dusp6 | inactive: 0.509 |
| CCAACUCGGAUCAACUUAUTT against Nfia | inactive: 1.36 |
| GGGAUCAACAUGAUAUUUUTT against Lrit1 | inactive: -0.903 |
| GCAAUGGCAUCAACCAUUCTT against Cbfa2t2 | inactive: 0.713 |
| GGAGACGUGGGAAAAGCUATT against Gucy1b2 | inactive: -1.93 |

| Sequence | z-score |
| --- | --- |
| GGUGAGACAUUUCAAGAAATT against Ndufb2 | inactive: 0.649 |
| GGCUUAUCGAUCGACAGUUTT against Nup155 | inactive: 0.442 |
| CCUAUCUCGGUCAUUGGCATT against Slc25a37 | inactive: -1.43 |
| GGCCUCUUAUAUAGAAUAATT against Polr3f | inactive: -0.753 |
| GGAUCAUUUCCUAGGACUGTT against Cox15 | inactive: -1.94 |
| GGAAGCUUCAAGCCAUGGUTT against Creb3 | inactive: -0.919 |
| GUAAAUAAAUCUGGUGGCATT against Rps25 | inactive: -0.92 |
| GAAAGUGAAACCAUUGCUGTT against Defb37 | inactive: 0.927 |
| CGUCUAGGAUGUGAAGUUUTT against Rbp4 | inactive: 1.97 |
| GCUAUGAACUUGUAGGAAATT against Iqcf4 | inactive: -0.56 |
| GGUAGUGGAGACAGAGAAGTT against Rasgrf1 | inactive: -0.527 |
| GCGAGUAGGACCAGUGAAATT against Xpo1 | active: -2.67 |
| CGACAAACACCGUAGCAAATT against Mrtfb | inactive: -0.00947 |
| GGACACAUGGAUGGAAUGUTT against Cd5l | inactive: 0.429 |
| GGGAAUUUCCUGAAAUCCUTT against Mettl8 | inactive: -0.167 |
| CCGUCUUCAAGACAGAUGCTT against Mzt2 | inactive: -0.239 |
| GGACCUUUUUAUCCAACGCTT against Mcts2 | inactive: 0.46 |
| GGUAAUGCUGUGGAGUCUUTT against Wdr53 | active: -2.59 |
| CCACGCUAACUGGAAAGAATT against Dusp19 | inactive: 0.558 |
